# Test results published in PubChem BioAssay AID493014 (National Center for Advancing Translational Sciences (NCATS), 2011).
# The list shows a part of the results. Further columns of the screen follow, without active or inactive calls. Most of these compounds were active or inconclusive in the main read-out, so they are no random draw. The note in brackets gives the kind of curve behind each potency; many fits are weak.
# Assay: qHTS Assay to Find Inhibitors of Chronic Active B-Cell Receptor Signaling
# Conditions: ABC-DLBCL IkBa-CBG/CBR reporter, luminescence ratio (green luciferase fused to IkBa over red control in TMD8 lymphoma cells), 4 h
# Outline: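 TMD8 human ABC-DLBCL cells with doxycycline-inducible IκBα–green luciferase fusion and unfused red luciferase, in 0.5% FBS medium; compounds up to 46 uM, 4 h at 37C. Green/red luminescence ratio, filter-overlap corrected, fitted to concentration-response curves.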
# [1] = measured here: CBR red luminescence, cell number
# [2] = measured here: IkBa-CBG green luminescence
SMILES,AC50 [1],AC50 [2]
CC(C)C(=O)OCC(=O)Nc1ccc2c(c1)CCC2,"10.3 µM [rising, single point]",–
S=c1nc(COc2ccccc2)[nH]c2ccccc12,"35.5 µM [falling, single point]",–
Cc1ccc(-c2cc(N)n(-c3ccc(C)cc3)n2)cc1,"0.708 µM [falling, full curve, poor fit]",–
CCC1(CC)NC(=O)N(CC(=O)OCC(=O)NC(=O)c2ccc(Cl)cc2)C1=O,"3.98 µM [rising, partial curve, poor fit]",–
CC(=O)c1sc(NC(=O)CCS(=O)(=O)c2ccc(C)cc2)nc1C,"6.51 µM [falling, partial curve]",–
O=C(CCCc1c[nH]c2ccccc12)N1CCOCC1,"15.8 µM [falling, single point]",–
COc1cc(C)ccc1OCCOCCOc1ccccc1[N+](=O)[O-],"11.6 µM [rising, partial curve]",–
CC(/C=N/NC(=O)c1cccc(F)c1)=C\c1ccccc1,"15.8 µM [falling, partial curve, poor fit]",–
Cc1ccc(S(=O)(=O)N(C)CC(O)Cn2c3ccccc3c3ccccc32)cc1 (centres undefined),"29.1 µM [falling, single point]",–
N#Cc1nc(-c2ccc(OCc3ccccc3)cc2)oc1NCCCn1ccnc1,"5.62 µM [falling, single point]",–
CC1CCc2sc(C(=O)NNC(=S)NC3CC3)cc2C1 (centres undefined),"0.447 µM [rising, full curve, poor fit]",–
COC(=O)c1ccc(C2C(C(=O)c3ccc(C)o3)=C(O)C(=O)N2c2cc(C)on2)cc1 (centres undefined),"6.31 µM [rising, single point]",–
O=C(NCCC1CCCCN1S(=O)(=O)c1ccccc1)C(=O)Nc1ccc(F)cc1F (centres undefined),"16.4 µM [falling, partial curve, poor fit]",–
COc1ccccc1OCCNC(=O)c1cccs1,"35.5 µM [falling, single point]",–
C#CCNC(=O)C1=C[C@@H](C2CCCCC2)C[C@@H](OCCCCO)O1,"11.2 µM [rising, partial curve, poor fit]",–
Cc1csc(NC(=O)CCn2c(=O)sc3ccccc32)n1,"0.326 µM [falling, full curve]",–
COc1ccccc1/C=C/C=N/NC(=O)c1ccc2nc[nH]c2c1,"2.51 µM [falling, full curve]",–
Cc1ccc(S(=O)(=O)N2CCN(c3nc(C(C)C)c4c(c3C#N)CC(C)(C)OC4)CC2)cc1,"29.1 µM [rising, single point]",–
CN1C(=O)C(CC(=O)Nc2ccc(F)cc2)N(Cc2cccs2)C1=S (centres undefined),"35.5 µM [falling, single point]",–
NNC(=S)Nc1ccc(Cl)cc1,"11.2 µM [rising, partial curve, poor fit]","35.5 µM [falling, partial curve, poor fit]"
COc1ccc(NC(=O)CN(c2cc(C)cc(C)c2)S(=O)(=O)c2c(C)n[nH]c2C)cc1,"7.31 µM [falling, partial curve]","1.03 µM [rising, partial curve, poor fit]"

SMILES,AC50 [1],AC50 [2]
O=C(NNc1cccc(Cl)n1)Nc1cccc(Cl)c1,"1.64 µM [falling, full curve]",–
COC(=O)c1ccc(Oc2nc(NC(C)C)nc(SC)n2)cc1,"4.11 µM [falling, full curve, poor fit]",–
Cc1cccc(OCC(=O)NCc2n[nH]c(=O)c3ccccc23)c1,"11.6 µM [falling, partial curve]",–
C/C(=N\NC(=O)c1cccs1)c1cccnc1,"22.4 µM [falling, single point]",–
CCCCCCN(C(=O)CCCCCN1C(=O)NC(c2ccc(-c3ccccc3)cc2)C(C(=O)OCc2ccccc2)=C1C)C(C(=O)NCCCC)c1ccccn1 (centres undefined),"7.94 µM [falling, partial curve, poor fit]",–
c1ccc2c(Nc3nnc(-c4ccncc4)s3)cccc2c1,"12.6 µM [falling, partial curve, poor fit]",–
COc1cc(/C=N/NC(=O)c2ccccc2)ccc1OS(=O)(=O)c1ccccc1,"10.3 µM [falling, single point]",–
O=C(Cc1ccc(F)cc1)NC1CCSC1=O (centres undefined),"17.8 µM [rising, single point]",–
O=C(CCc1ccccc1)N=C1SC2CS(=O)(=O)CC2N1c1ccccc1F (centres undefined),"2.51 µM [rising, full curve, poor fit]",–
COc1ccc2[nH]cc(C(=O)CN3CCN(C/C=C/c4ccccc4)CC3)c2c1,"10 µM [falling, partial curve, poor fit]",–
CCN(CC)CCNc1ccc(CO)c2sc3ccccc3c(=O)c12,"11.2 µM [falling, partial curve]",–
Cc1c(C(=O)N2CCN(Cc3ccc4c(c3)OCO4)CC2)sc2ncnc(N3CCN(c4ccccc4)CC3)c12,"6.31 µM [falling, partial curve]",–
O=C(NNCc1ccc(O)cc1)c1ccccc1Cl,"6.31 µM [falling, full curve]",–
NC(=S)N/N=C/c1coc2cc(Cl)ccc2c1=O,"5.17 µM [rising, full curve]","4.11 µM [rising, full curve, poor fit]"
COc1ccc(C(CNC(=O)c2c(C)nn(Cc3ccc(C)cc3)c2Cl)N2CCOCC2)cc1 (centres undefined),"29.1 µM [rising, single point]","18.4 µM [falling, partial curve, poor fit]"
Cc1nc(Nc2ccncc2)c2oc3ccccc3c2n1,"18.4 µM [falling, single point]",–
Cc1ccc(Cc2nc(-c3ccccn3)no2)cc1,"1 µM [rising, full curve, poor fit]",–
COc1ccc(NC(=S)NC2CCCCC2)c(OC)c1,"35.5 µM [falling, single point]",–
Cc1ccc(SCc2cc(=O)[nH]c(Nc3nc(C)c4ccccc4n3)n2)cc1,"16.4 µM [rising, partial curve, poor fit]",–
O=C(CSc1nc(-c2ccccc2)c(-c2ccccc2)[nH]1)N1CCN(S(=O)(=O)c2ccccc2)CC1,"18.4 µM [falling, single point]",–
CCOc1ccc(CN2CCN(CC3CC3)CC2CCO)cc1 (centres undefined),"6.31 µM [rising, partial curve, poor fit]",–

SMILES,AC50 [1],AC50 [2]
C/C(=N/NC(=O)c1cc(Cl)ccc1O)C12CC3CC(CC(C3)C1)C2,"1.78 µM [falling, full curve]",–
CCOC(=O)C1=C(C)NC(SCC(=O)Nc2cc(C)on2)=C(C#N)C1c1cccs1 (centres undefined),"14.6 µM [falling, single point]",–
O=[N+]([O-])c1ccc(OCc2nnc(-c3ccccc3)o2)cc1,"11.2 µM [rising, partial curve, poor fit]",–
Cc1cccc(S(=O)(=O)Nc2ccc(-c3cn4ccccc4n3)cc2)c1,"13 µM [rising, partial curve]",–
COc1cc(/C=C2\OC(=O)c3c(OC)cccc32)ccc1O,–,"3.26 µM [falling, partial curve]"
COc1ccccc1OCCCOc1ccc(/C=C2\SC(=O)NC2=O)cc1OC,"2.51 µM [rising, full curve]",–
C/C(CC(=O)Nc1ccc2c(c1)OCCO2)=N\NC(=O)COc1ccccc1C,"3.98 µM [falling, single point]",–
O=C(c1ccco1)N1CCN(C(=S)NC2CC3CCC2C3)CC1 (centres undefined),"10 µM [rising, partial curve]",–
CCCCC[C@H](O)/C=C/[C@@H]1[C@@H](C/C=C\CCCC(=O)OC)[C@@H](O)C[C@H]1O,"1 µM [rising, full curve, poor fit]","6.51 µM [falling, partial curve]"
Cc1ccc(S(=O)(=O)N2CCCCC2)cc1NC(=O)Cn1ccsc1=N,"11.2 µM [falling, partial curve, poor fit]",–
CC(/C=N/n1cnnc1)=C\c1ccco1,"32.6 µM [rising, single point]",–
COc1ccc(C)cc1S(=O)(=O)N(C)CC(=O)N1CCCCCC1,"29.1 µM [rising, single point]",–
COc1cccc(-n2c(-c3ccccc3)c[nH]c2=S)c1,"8.91 µM [falling, partial curve]",–
Cn1cccc1CNCC(O)c1ccccc1 (centres undefined),"0.282 µM [falling, full curve, poor fit]",–
COc1ccc(-c2nc(C#N)c(N3CCCCC3)o2)cc1,"3.16 µM [falling, partial curve]",–
COc1ccc(-n2c(=O)c3ccccc3n(CC(=O)Nc3cc(C)on3)c2=O)cc1OC,"8.2 µM [rising, partial curve, poor fit]",–
N#Cc1c(-c2cccs2)cc(-c2cccnc2)nc1N,"7.94 µM [falling, partial curve, poor fit]",–
COCCNC(=S)N/N=C(\C)c1cc2ccccc2o1,"29.1 µM [falling, single point]","29.1 µM [falling, single point]"
O=C(CSc1nnc(Cn2c(=O)sc3ccccc32)n1-c1ccccc1)N1CCOCC1,"15.8 µM [rising, single point]",–
CCN(CC)c1ccc(NC(=O)OC)cc1,"6.51 µM [falling, single point]",–
Cc1ccc(C(=O)N2CCc3cc(CNC(=O)CSc4ccccc4)ccc32)cc1,–,"35.5 µM [rising, partial curve, poor fit]"

# Some of the entries so far, with tabs.
SMILES	AC50 [1]	AC50 [2]
COc1ccc(-n2c(=O)c3ccccc3n(CC(=O)Nc3cc(C)on3)c2=O)cc1OC	8.2 µM [rising, partial curve, poor fit]	–
N#Cc1c(-c2cccs2)cc(-c2cccnc2)nc1N	7.94 µM [falling, partial curve, poor fit]	–

# Look-ups from above.
# In AC50 [1], `C#CCNC(=O)C1=C[C@@H](C2CCCCC2)C[C@@H](OCCCCO)O1` has the entry 11.2 µM [rising, partial curve, poor fit]
# In AC50 [1], `CCCCCCN(C(=O)CCCCCN1C(=O)NC(c2ccc(-c3ccccc3)cc2)C(C(=O)OCc2ccccc2)=C1C)C(C(=O)NCCCC)c1ccccn1` (centres undefined) has the entry 7.94 µM [falling, partial curve, poor fit]
